The list shows a part of the results. Most values lie at the level of the controls, where differences are scatter.

The chains behind the UniProt entries cited, without tags or fusion partners. Where a name states a change or a piece, a line headed by the entry shows the natural chain unless it says otherwise.
UniProt Q9NX70: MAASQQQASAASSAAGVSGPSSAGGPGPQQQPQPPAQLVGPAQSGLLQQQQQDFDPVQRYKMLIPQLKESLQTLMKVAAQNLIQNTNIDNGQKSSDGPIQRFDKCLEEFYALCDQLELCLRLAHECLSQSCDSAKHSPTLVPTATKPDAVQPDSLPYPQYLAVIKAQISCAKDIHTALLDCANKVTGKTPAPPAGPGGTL
UniProt Q9NXF7, whole entry: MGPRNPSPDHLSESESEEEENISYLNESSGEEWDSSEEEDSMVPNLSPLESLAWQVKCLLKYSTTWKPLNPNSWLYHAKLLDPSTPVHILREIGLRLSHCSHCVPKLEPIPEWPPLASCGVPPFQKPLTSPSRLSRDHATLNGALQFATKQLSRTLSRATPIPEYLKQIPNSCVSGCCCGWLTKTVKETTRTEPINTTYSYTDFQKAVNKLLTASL
UniProt Q9NZJ9: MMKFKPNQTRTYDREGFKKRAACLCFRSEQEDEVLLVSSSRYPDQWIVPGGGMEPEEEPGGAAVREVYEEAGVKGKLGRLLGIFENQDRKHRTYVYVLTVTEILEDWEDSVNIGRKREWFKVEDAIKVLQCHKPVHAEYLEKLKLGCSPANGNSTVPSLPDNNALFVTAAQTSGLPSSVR
UniProt Q9UEU0: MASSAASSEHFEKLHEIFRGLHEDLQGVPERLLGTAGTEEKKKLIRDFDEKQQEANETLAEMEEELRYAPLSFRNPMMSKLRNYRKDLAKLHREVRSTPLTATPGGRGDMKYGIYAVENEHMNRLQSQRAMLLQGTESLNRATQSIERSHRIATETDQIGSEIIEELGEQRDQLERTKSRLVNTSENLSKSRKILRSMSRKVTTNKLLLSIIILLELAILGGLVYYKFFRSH
UniProt Q9P0L1: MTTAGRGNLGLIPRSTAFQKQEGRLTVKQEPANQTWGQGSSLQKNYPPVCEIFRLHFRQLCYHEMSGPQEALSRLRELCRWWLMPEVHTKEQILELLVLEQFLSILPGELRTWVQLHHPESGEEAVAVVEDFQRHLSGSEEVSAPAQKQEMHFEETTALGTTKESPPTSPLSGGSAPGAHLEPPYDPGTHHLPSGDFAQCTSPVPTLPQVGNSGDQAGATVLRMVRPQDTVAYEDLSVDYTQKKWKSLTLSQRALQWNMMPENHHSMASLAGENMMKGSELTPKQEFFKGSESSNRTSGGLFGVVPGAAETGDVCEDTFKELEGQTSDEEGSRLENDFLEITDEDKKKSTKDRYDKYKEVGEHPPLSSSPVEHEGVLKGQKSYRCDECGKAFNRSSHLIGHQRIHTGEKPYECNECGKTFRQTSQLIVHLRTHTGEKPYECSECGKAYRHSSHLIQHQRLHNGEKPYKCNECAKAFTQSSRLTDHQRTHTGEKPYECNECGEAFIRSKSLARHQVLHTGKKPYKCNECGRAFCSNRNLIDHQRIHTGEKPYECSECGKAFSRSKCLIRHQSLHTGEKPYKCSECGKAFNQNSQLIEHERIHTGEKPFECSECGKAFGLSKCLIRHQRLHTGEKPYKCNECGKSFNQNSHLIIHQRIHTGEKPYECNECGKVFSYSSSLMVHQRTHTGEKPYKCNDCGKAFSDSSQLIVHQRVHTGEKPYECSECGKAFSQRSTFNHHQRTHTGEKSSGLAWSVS
UniProt Q9UH36: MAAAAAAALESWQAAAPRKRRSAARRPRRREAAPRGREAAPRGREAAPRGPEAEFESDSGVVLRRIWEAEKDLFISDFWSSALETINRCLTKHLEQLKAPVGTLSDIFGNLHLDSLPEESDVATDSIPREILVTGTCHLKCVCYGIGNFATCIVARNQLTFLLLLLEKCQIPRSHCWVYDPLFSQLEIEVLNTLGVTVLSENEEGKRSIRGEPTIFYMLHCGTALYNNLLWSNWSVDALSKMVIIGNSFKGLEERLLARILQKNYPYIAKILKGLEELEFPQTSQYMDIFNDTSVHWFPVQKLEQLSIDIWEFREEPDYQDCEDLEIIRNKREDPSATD
UniProt Q9P0L0: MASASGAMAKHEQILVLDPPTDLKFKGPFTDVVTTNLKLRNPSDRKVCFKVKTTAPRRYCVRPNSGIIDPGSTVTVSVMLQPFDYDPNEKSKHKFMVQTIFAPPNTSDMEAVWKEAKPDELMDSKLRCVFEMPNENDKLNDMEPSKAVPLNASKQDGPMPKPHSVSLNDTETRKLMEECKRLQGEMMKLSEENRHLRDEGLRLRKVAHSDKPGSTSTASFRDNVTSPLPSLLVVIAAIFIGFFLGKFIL
UniProt Q9UBP9: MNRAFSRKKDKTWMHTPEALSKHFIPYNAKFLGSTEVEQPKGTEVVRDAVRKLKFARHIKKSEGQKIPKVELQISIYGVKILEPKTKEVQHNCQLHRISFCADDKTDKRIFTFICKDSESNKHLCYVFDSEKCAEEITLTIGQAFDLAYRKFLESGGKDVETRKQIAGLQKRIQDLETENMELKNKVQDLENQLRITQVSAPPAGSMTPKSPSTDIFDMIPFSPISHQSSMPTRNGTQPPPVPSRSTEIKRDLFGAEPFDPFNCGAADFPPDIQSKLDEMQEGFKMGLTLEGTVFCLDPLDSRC
UniProt Q9NYS0: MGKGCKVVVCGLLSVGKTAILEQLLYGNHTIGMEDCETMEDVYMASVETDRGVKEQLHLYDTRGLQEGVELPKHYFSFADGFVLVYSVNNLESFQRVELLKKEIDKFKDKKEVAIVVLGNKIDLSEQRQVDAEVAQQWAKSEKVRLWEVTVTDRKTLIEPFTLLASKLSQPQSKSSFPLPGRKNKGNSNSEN
UniProt Q9P258, whole entry: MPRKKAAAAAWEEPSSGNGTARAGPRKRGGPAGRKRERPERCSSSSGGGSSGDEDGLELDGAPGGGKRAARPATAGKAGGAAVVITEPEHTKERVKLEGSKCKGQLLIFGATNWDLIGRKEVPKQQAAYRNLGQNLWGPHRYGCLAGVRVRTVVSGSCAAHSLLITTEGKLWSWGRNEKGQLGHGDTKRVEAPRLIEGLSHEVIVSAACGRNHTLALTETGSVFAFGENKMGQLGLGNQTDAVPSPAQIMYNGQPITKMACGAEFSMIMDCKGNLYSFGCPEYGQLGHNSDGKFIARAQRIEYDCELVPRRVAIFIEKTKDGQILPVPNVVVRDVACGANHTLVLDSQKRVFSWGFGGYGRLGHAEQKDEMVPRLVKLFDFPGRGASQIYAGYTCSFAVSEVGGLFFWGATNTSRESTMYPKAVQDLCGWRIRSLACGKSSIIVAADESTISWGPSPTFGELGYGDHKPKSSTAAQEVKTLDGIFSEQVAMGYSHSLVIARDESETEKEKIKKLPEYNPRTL
UniProt Q9P209, whole entry: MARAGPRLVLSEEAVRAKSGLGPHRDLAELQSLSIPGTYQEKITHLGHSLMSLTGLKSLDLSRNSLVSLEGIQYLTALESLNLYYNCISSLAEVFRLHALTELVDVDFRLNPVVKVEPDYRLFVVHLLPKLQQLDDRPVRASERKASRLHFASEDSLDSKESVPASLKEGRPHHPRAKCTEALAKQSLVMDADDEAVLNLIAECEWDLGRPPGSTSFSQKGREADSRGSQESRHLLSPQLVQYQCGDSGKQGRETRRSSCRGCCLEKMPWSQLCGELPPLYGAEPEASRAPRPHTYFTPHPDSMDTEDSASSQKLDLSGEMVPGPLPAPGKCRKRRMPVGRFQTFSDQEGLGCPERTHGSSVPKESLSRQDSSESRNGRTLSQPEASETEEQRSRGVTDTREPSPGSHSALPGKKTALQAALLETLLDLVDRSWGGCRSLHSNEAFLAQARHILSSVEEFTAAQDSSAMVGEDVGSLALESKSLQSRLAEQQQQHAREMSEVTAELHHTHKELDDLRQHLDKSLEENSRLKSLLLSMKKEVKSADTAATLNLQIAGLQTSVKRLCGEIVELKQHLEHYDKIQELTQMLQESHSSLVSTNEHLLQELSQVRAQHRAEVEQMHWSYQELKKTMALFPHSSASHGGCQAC
UniProt Q9NXH8: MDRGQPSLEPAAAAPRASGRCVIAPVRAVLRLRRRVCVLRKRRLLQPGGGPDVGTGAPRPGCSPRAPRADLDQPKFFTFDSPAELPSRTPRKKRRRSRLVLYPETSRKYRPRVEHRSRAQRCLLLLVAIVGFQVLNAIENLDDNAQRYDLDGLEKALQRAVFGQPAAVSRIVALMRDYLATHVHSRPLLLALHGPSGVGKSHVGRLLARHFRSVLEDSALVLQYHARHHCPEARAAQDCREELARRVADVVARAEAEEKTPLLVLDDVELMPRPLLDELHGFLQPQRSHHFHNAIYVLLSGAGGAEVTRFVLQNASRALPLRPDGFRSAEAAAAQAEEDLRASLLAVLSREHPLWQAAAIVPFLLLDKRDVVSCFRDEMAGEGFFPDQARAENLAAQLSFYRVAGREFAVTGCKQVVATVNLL
UniProt Q9P2W1: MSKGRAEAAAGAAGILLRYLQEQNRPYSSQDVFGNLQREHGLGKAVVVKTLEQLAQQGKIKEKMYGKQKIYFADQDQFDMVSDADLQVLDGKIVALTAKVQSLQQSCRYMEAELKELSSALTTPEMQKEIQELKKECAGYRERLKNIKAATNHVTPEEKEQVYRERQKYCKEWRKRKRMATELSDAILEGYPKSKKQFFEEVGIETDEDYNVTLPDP
UniProt Q9NZM3: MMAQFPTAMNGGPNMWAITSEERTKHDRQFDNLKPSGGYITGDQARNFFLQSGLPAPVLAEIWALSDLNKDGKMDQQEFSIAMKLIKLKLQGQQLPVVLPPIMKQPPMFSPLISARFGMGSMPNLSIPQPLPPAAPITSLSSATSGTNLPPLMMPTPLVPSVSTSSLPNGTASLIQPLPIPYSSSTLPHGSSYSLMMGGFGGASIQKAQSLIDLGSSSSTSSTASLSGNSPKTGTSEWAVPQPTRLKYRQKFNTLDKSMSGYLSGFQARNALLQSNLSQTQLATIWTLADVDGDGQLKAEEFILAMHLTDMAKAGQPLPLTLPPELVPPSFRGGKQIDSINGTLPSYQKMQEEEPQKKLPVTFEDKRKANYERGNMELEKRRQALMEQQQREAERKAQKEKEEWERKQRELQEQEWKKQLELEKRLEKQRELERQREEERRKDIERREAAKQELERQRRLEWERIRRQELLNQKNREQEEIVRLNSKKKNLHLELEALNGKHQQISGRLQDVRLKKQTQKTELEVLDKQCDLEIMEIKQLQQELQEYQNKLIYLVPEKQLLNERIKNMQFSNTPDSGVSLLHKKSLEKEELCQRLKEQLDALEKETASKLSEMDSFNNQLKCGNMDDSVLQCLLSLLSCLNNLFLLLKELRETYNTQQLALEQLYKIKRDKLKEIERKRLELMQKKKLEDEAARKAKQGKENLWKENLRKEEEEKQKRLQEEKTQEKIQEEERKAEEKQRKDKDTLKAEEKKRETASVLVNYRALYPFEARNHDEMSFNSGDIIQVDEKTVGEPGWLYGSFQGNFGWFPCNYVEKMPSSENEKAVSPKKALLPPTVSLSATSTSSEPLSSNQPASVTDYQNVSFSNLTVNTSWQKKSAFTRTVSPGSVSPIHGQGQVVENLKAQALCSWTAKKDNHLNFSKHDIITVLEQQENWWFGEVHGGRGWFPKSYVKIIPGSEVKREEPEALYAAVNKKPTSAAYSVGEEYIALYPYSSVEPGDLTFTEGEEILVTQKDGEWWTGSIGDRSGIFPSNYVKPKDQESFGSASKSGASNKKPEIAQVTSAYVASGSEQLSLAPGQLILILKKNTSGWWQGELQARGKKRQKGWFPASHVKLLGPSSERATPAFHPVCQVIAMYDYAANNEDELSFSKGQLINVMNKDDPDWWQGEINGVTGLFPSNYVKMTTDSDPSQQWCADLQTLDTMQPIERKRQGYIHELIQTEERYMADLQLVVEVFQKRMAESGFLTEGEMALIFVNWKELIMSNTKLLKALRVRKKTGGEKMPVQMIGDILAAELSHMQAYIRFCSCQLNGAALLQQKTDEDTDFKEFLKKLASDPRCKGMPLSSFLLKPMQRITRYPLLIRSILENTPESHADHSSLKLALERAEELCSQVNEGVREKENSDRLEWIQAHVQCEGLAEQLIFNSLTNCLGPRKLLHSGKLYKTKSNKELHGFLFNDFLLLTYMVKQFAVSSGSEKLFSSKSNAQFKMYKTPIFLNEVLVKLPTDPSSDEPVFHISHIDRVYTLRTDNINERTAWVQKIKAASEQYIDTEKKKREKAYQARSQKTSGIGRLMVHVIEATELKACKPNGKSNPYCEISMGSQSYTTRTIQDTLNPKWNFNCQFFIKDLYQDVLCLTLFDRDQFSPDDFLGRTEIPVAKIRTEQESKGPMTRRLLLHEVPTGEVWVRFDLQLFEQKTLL
UniProt Q9NZ43: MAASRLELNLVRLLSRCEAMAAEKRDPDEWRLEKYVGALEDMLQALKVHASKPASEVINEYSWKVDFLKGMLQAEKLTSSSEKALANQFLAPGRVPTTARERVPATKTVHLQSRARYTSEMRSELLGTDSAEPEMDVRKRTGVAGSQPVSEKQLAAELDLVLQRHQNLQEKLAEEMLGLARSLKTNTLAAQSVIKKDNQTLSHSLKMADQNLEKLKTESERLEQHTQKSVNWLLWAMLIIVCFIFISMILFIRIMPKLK
UniProt Q9P0P0: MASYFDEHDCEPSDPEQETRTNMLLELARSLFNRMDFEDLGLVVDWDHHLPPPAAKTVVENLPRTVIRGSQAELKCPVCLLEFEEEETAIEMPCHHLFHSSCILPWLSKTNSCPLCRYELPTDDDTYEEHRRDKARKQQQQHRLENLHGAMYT

Compound in the assay: Cc1nc(Nc2ncc(C(=O)Nc3c(C)cccc3Cl)s2)cc(N2CCN(CCO)CC2)n1 [dasatinib]
The assay can be described thus: log2 fold change of tryptic peptide abundance, ligand vs vehicle (limited proteolysis) (log2 ratio); higher = more trypsin-susceptible (destabilized). The conditions noted are these: ligand concentration: 5 uM; sample: K562 cleared lysate.
Turning to “ARHGEF12 (peptide sequence: KVEESYTILCQR, peptide start residue: 1519) (UniProt Q9NZN5)”, the log2 fold change was -0.397.
Regarding “MED29 (peptide sequence: ESLQTLMK, peptide start residue: 69) (UniProt Q9NX70)”, the log2 fold change was -0.0473.
As to “UniProt Q9NXF7 (peptide sequence: YSTTWKPLNPNSWLYHAK, peptide start residue: 62)”, the log2 fold change worked out at 0.44.
“NUDT4 (peptide sequence: LLGIFENQDRK, peptide start residue: 80) (UniProt Q9NZJ9)”: the log2 fold change is -0.219.
Turning to “VTI1B (peptide sequence: YGIYAVENEHMNR, peptide start residue: 112) (UniProt Q9UEU0)”, the log2 fold change turned out to be 0.244.
“UniProt Q9P0L1 (peptide sequence: HSSHLIQHQR, peptide start residue: 226)”: the log2 fold change stood at 0.3.
As for “SRRD (peptide sequence: NKREDPSATD, peptide start residue: 330) (UniProt Q9UH36)”, the log2 fold change was -0.0443.
Next, “VAPA (peptide sequence: HLRDEGLR, peptide start residue: 195) (UniProt Q9P0L0)”: 0.0906; “COQ3 (peptide sequence: SFDPVLDKR, peptide start residue: 189) (UniProt Q9NZJ6)”: 0.168.
For “GULP1 (peptide sequence: VELQISIYGVK, peptide start residue: 70) (UniProt Q9UBP9)”, the log2 fold change turned out to be 0.956.
As for “NKIRAS1 (peptide sequence: SSFPLPGR, peptide start residue: 175) (UniProt Q9NYS0)”, the figure is 0.369; as for “RCC2 (peptide sequence: IEYDCELVPR, peptide start residue: 301) (UniProt Q9P258)”, 0.875.
As for “IBTK (peptide sequence: SLDVLSDGVLK, peptide start residue: 911) (UniProt Q9P2D0)”, the figure is -0.49; as for “CEP72 (peptide sequence: LCGEIVELK, peptide start residue: 564) (UniProt Q9P209)”, 0.351.
As for “UniProt Q9NXH8 (peptide sequence: SVLEDSALVLQYHAR, peptide start residue: 213)”, the figure is 0.121; as for “SACS (peptide sequence: FYTSWNQEATSHK, peptide start residue: 4397) (UniProt Q9NZJ4)”, 0.3; as for “PSMC3IP (peptide sequence: EIQELKK, peptide start residue: 129) (UniProt Q9P2W1)”, 0.231.
“ETAA1 (peptide sequence: QIYTTDSDEISHIVNR, peptide start residue: 124) (UniProt Q9NY74)”: the log2 fold change was -0.412.
In the case of “RBM27 (peptide sequence: EEIKEEVFQEPAEEERDGR, peptide start residue: 96) (UniProt Q9P2N5)”, the log2 fold change is -0.141.
Next, “FAM120A (peptide sequence: TCNTNPHLNALSTDSACRR, peptide start residue: 1087) (UniProt Q9NZB2)”: 0.264; “UniProt Q9P2B7 (peptide sequence: STLGQYSPLR, peptide start residue: 482)”: 0.298; “UniProt Q9NX74 (peptide sequence: AQELAQPGDLCK, peptide start residue: 465)”: 0.0934.
Next, “ITSN2 (peptide sequence: KKNLHLELEALNGK, peptide start residue: 488) (UniProt Q9NZM3)”: -0.316.
Next, “STK39 (peptide sequence: EASSCAVNLVLR, peptide start residue: 446) (UniProt Q9UEW8)”: -0.387.
With “USE1 (peptide sequence: ALANQFLAPGRVPTTAR, peptide start residue: 84) (UniProt Q9NZ43)”, the log2 fold change turned out to be 0.212.
Next, “UniProt Q9NZM5 (peptide sequence: DVLAHQVPNAKK, peptide start residue: 133)”: -0.152; “RNF181 (peptide sequence: LENLHGAMYT, peptide start residue: 144) (UniProt Q9P0P0)”: 0.0582.

Source of the values: the supplement of paper PMC12819154, “High-throughput peptide-centric local stability assay extends protein–ligand identification to membrane proteins, tissues and bacteria” (Nature Structural & Molecular Biology, 2025).
